No constants are given. Whether binding was seen depends on the method and setting. Some entries that bind do so weakly or less than the wild type.

Amino acid sequences for entries named in this document (tags omitted). A change or cut given only in a name is not applied to a line headed by its entry.
UniProt P04386: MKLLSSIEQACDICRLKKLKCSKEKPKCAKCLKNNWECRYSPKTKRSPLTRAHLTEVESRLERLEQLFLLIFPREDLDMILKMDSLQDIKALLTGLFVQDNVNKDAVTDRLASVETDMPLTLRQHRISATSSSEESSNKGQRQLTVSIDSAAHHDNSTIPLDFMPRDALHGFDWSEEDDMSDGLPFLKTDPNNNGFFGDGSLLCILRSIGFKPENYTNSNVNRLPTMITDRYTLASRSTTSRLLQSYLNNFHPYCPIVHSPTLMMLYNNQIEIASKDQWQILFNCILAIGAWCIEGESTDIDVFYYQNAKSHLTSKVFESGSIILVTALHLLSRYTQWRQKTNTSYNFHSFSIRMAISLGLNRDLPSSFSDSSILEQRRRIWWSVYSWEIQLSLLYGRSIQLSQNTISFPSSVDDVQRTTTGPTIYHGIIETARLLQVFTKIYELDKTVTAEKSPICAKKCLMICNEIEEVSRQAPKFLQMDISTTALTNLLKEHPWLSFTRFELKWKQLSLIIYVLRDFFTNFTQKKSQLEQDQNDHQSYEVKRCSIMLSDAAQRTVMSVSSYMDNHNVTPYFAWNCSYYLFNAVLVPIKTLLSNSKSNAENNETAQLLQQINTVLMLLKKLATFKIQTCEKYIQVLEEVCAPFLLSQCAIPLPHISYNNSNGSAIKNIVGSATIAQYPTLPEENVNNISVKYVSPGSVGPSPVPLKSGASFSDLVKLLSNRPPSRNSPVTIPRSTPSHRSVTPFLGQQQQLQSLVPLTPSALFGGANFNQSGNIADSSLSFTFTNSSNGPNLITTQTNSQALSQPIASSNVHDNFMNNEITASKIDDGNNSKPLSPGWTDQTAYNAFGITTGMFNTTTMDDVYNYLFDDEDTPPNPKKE

Assay [1] addresses T1, full-length mouse CnA-α fused to the GAL4 DNA binding domain (yeast; mouse) (UniProt P04386+P63328). Kind of assay: yeast two-hybrid screen, GAL4 DNA binding domain-CnA-α as bait, heart cDNA library.
Assay [2] concerns the target T1, full-length mouse CnA-α fused to the GAL4 DNA binding domain (yeast; mouse). Description: yeast two-hybrid screen.

B1: calsarcin-1 (cDNA clone found in the two-hybrid screen with CnA-α as bait) (protein, not shown: large carriers)
chain: MLSHNTMMKQRKQQATAIMKEVHGNDVDGMDLGKKVSIPRDIMLEELSHLSNRGARLFKMRQRRSDKYTFENFQYQSRAQINHSIAMQNGKVDGSNLEGGSQQAPLTPPNTPDPRSPPNPDNIAPGYSGPLKEIPPEKFNTTAVPKYYQSPWEQAISNDPELLEALYPKLFKPEGKAELPDYRSFNRVATPFGGFEKASRMVKFKVPDFELLLLTDPRFMSFVNPLSGRRSFNRTPKGWISENIPIVITTEPTDDTTVPESEDL
On to B1, for which the binding entry in assay [1] and in assay [2] was “binds” in each case.

Source of the values: patent publication US20040210950A1.
